Literature values in patent US6559139B1, “Combination chemotherapy” (University of Pittsburgh of the Commonwealth System of …, priority 1997, dated 2003).
At least one structure is not confirmed: it was looked up by name or label, or the drawing left a doubt.

Details: cited from earlier work

SMILES	stability in tissue culture media
C=C1/C(=C\C=C2/CCC[C@]3(C)[C@@H]([C@H](C)CCCC(C)(C)O)CC[C@@H]23)C[C@@H](O)C[C@@H]1O [1,25D3, 1,25-dihydroxycholecalciferol]	not stable for long periods
C=C1/C(=C\C=C2/CCC[C@]3(C)C([C@H](C)CC#CC(C)(C)O)=CC[C@@H]23)C[C@@H](O)C[C@@H]1O [Ro23-7553, 1,25-dihydroxy-16-ene-23-yne-cholecalciferol]	not stable for long periods
